Experimental data: PubChem BioAssay AID1259308 (NCATS, 2017)
The deposit covers about 59,000 reagents; shown is a random part of them. About 1,510 of them (2.6%) count as active. 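Calls use total luciferase alone and ignore viability, so some active siRNAs may act by altering cell number.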 Unmarked entries are inactive. Reagents against one gene are numbered here. Further read-outs or replicates are left out here.

Test: 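Candidate targets for better recombinant protein yield in mammalian cells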 (primary screen)
System: human HEK293 embryonic kidney cells stably expressing firefly luciferase (HEK-CMV-Luc2-Hygro)
Reagent: single siRNA against human genes, 0.8 pmol siRNA per well
Duration: 72 h
Measurement: 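Reporter luminescence and viable-cell signal on separate replicate plates, given as percent of non-targeting control and median/MAD z-scores, plus per-cell luciferase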
Reading the numbers: total luciferase, z-score and total luciferase, % of control: higher = more reporter protein produced
Hit rule: 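Active when the median/MAD z-score for overall luciferase is greater than 3; a gene was taken forward for validation with new siRNAs if at least two of its three siRNAs passed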
Meaning of the calls: active = raised luciferase; inactive = no rise

After knock-down of RPS15AP25 (ribosomal protein S15a pseudogene 25) #1 the results were total luciferase, z-score 0.763; total luciferase, % of control 97.1.
For RPS15AP25 (ribosomal protein S15a pseudogene 25) #2, the values are total luciferase, z-score -0.712; total luciferase, % of control 67.7.
Silencing of RPS15AP25 (ribosomal protein S15a pseudogene 25) #3 resulted in: total luciferase, z-score 0.0928; total luciferase, % of control 83.7.
RPRD1B (regulation of nuclear pre-mRNA domain containing 1B) #1 gave total luciferase, z-score -0.785; total luciferase, % of control 66.3.
Knock-down of RPRD1B (regulation of nuclear pre-mRNA domain containing 1B) #2 gave: total luciferase, z-score -0.69; total luciferase, % of control 68.2.
RPRD1B (regulation of nuclear pre-mRNA domain containing 1B) #3 showed total luciferase, z-score -0.369; total luciferase, % of control 74.6.
With knock-down of TJP2 (tight junction protein 2) #1 the results were total luciferase, z-score -0.098; total luciferase, % of control 79.9.
TJP2 (tight junction protein 2) #2 showed total luciferase, z-score 0.301; total luciferase, % of control 87.9.
Depletion of TJP2 (tight junction protein 2) #3 came out at: total luciferase, z-score 0.0875; total luciferase, % of control 83.6.
Silencing of P4HB (prolyl 4-hydroxylase subunit beta) #1 gave: total luciferase, z-score -1.01; total luciferase, % of control 61.9.
P4HB (prolyl 4-hydroxylase subunit beta) #2 gave total luciferase, z-score 0.828; total luciferase, % of control 98.4.
Depletion of P4HB (prolyl 4-hydroxylase subunit beta) #3 came out at: total luciferase, z-score 1.54; total luciferase, % of control 113.
Knock-down of APH1B (aph-1B gamma-secretase subunit) #1 resulted in: total luciferase, z-score 2; total luciferase, % of control 122.
APH1B (aph-1B gamma-secretase subunit) #2 gave total luciferase, z-score -0.922; total luciferase, % of control 63.6.
Silencing of APH1B (aph-1B gamma-secretase subunit) #3 resulted in: total luciferase, z-score 0.113; total luciferase, % of control 84.1.
Knock-down of ISL2 (ISL LIM homeobox 2) #1 came out at: total luciferase, z-score 0.0642; total luciferase, % of control 83.2.
With knock-down of ISL2 (ISL LIM homeobox 2) #2 the results were total luciferase, z-score -0.594; total luciferase, % of control 70.1.
After knock-down of ISL2 (ISL LIM homeobox 2) #3, the record shows total luciferase, z-score -1.57; total luciferase, % of control 50.6.

Quoted from the listing, 2 entries:
APH1B (aph-1B gamma-secretase subunit) #2 → total luciferase, z-score = -0.922; total luciferase, % of control = 63.6
APH1B (aph-1B gamma-secretase subunit) #3 → total luciferase, z-score = 0.113; total luciferase, % of control = 84.1

Further results follow:
RILPL1 (Rab interacting lysosomal protein like 1) #1 showed total luciferase, z-score 0.0875; total luciferase, % of control 83.6.
Against RILPL1 (Rab interacting lysosomal protein like 1) #2, the values are total luciferase, z-score -0.196; total luciferase, % of control 78.
With knock-down of RILPL1 (Rab interacting lysosomal protein like 1) #3 the results were total luciferase, z-score 1.54; total luciferase, % of control 113.
NMUR2 (neuromedin U receptor 2) #1 gave total luciferase, z-score -0.219; total luciferase, % of control 77.5.
After knock-down of NMUR2 (neuromedin U receptor 2) #2 the results were total luciferase, z-score -0.269; total luciferase, % of control 76.5.
NMUR2 (neuromedin U receptor 2) #3 showed total luciferase, z-score -0.0465; total luciferase, % of control 81.
After knock-down of TSPEAR (thrombospondin type laminin G domain and EAR repeats) #1 the results were total luciferase, z-score 1.85; total luciferase, % of control 119.
TSPEAR (thrombospondin type laminin G domain and EAR repeats) #2 scored total luciferase, z-score -0.257; total luciferase, % of control 76.8.
TSPEAR (thrombospondin type laminin G domain and EAR repeats) #3 scored total luciferase, z-score -0.205; total luciferase, % of control 77.8.
For EZR (ezrin) #1, the entry reads total luciferase, z-score 0.619; total luciferase, % of control 94.2.
EZR (ezrin) #2 scored total luciferase, z-score -0.179; total luciferase, % of control 78.3.
For EZR (ezrin) #3 the deposit lists total luciferase, z-score 0.443; total luciferase, % of control 90.7.
Knock-down of RRS1 (regulator of ribosome synthesis 1) #1 gave: total luciferase, z-score 0.21; total luciferase, % of control 86.1.
Silencing of RRS1 (regulator of ribosome synthesis 1) #2 came out at: total luciferase, z-score -1.33; total luciferase, % of control 55.4.
After knock-down of RRS1 (regulator of ribosome synthesis 1) #3 the results were total luciferase, z-score -0.04; total luciferase, % of control 81.1.
